Laboratory results taken from paper PMC10308357.
Changes are numbered by the printed parent chain. Names may count otherwise. These are yes or no findings as the source states them, for the method shown. In cells and extracts the contact can be indirect. Some binding calls cover weakened binding; strength is not graded here. Tags and fused reporters may be left off the sequences shown. One block for each molecule: values may come before it.

Protein sequences, listed by entry. Tags and fused reporters are not part of them.
UniProt O60238: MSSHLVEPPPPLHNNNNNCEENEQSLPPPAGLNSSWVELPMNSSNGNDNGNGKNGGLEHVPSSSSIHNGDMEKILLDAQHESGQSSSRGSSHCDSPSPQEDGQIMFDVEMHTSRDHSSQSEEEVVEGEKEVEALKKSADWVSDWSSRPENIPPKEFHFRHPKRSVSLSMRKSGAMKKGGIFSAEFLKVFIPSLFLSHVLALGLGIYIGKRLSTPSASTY
UniProt Q12983: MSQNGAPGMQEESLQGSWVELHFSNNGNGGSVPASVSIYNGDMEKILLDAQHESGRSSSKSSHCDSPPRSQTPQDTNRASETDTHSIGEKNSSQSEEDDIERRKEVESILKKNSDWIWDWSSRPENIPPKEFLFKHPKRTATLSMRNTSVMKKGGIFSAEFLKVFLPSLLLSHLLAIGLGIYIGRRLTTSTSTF
UniProt P63208: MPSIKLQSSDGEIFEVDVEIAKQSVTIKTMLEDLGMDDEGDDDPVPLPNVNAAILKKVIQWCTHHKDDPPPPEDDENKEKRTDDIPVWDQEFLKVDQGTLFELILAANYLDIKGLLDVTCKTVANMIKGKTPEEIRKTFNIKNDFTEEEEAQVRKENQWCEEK

Key:
[1] = biological target: T1, FBXL4-3xFlag (human) (UniProt Q9UKA2); test: co-IP; Flag M2 affinity gel, 2 h, on lysates of transfected hTERT-RPE1 FlpIN TREX cells; NP40 buffer (0.5% NP40, 25 mM Tris pH 7.5, 100 mM NaCl, 50 mM NaF); eluted with Flag peptide; blotted for Flag and GFP or SKP1
T1 sequence: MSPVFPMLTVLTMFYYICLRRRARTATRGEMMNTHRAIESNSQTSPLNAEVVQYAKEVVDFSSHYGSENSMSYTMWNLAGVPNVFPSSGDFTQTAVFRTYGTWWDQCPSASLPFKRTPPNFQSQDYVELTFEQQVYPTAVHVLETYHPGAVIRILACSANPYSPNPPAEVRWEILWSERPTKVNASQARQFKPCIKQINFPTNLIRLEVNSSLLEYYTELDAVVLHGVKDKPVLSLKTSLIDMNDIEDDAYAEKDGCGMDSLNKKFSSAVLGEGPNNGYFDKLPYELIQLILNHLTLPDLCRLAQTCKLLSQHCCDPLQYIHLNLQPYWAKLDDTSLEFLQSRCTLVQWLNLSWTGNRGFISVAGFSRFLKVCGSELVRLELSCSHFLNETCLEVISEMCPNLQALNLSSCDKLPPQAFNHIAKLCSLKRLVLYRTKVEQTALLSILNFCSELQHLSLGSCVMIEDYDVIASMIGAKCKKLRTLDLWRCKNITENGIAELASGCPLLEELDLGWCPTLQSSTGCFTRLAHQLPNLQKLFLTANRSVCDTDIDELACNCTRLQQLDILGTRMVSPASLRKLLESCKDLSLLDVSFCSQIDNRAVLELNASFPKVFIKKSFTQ

[2] = biological target: T2, FBXL4 [R482W]-3xFlag (human) (UniProt Q9UKA2); test: as above
T2 sequence: T1 sequence with R482W

[3] = biological target: GFP-NIX (UniProt O60238); test: co-IP; GFP nano-trap (GFP-nanobody) beads, 1 h, on lysates of co-transfected hTERT-RPE1 FlpIN TREX cells; NP40 buffer (0.5% NP40, 25 mM Tris pH 7.5, 100 mM NaCl, 50 mM NaF); eluted in sample buffer; blotted for Flag and GFP
[4] = biological target: GFP-BNIP3 (UniProt Q12983); test: as above

binding [1]: binds
binding [2]: binds
Molecule: SKP1 (from UniProt P63208 1-163)

binding [3]: binds
binding [4]: binds
B1: FBXL4-3xFlag (protein, UniProt Q9UKA2 1-621)
chain: T1 sequence

binding [3]: binds
binding [4]: binds
B2: FBXL4 [R482W]-3xFlag (protein, UniProt Q9UKA2 1-621)
chain: T1 sequence with R482W
